Experimental data: PubChem BioAssay AID1259303 (Sanger Institute, 2017)

- Aim: 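Follow-up kinase siRNA test for drug synergy in colorectal cancer cells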 (follow-up of hits)
- Cells: human COLO320HSR colorectal cancer cells
- Reagents: single siRNA against human genes
- Challenge: anchor drug BYL719 (1 µM), cetuximab (5 µg/ml) or trametinib (10 nM), or DMSO vehicle alone
- Detection: 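Synergy of each knock-down with BYL719 (1 µM), cetuximab (5 µg/ml) or trametinib (10 nM) versus drug alone, plus mean viability normalised to non-targeting pool 2 siRNA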
- Reading the numbers: synergy score with BYL719: higher = stronger combined killing with BYL719; synergy score with cetuximab: higher = stronger combined killing with cetuximab; synergy score with trametinib: higher = stronger combined killing with trametinib
- Hit rule: 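Called active if the synergy score tops 0.10 with BYL719, cetuximab or trametinib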
- Calls: active = synergy with at least one drug; inactive = no synergy found
The whole screen tested 160 reagents; below is an unselected part. In the full data, 11 (6.9%) were called active. 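Viability capped at 1; how the synergy score is calculated is not stated; four separate siRNAs target each gene.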 The numbers tell different reagents against one gene apart. Not all columns of the deposit are shown. Reagent sequences are not shown. The record does not give: the amount of reagent, the time to read-out.

PAK1 #1: synergy score with BYL719 = -0.0755; synergy score with cetuximab = -0.152; synergy score with trametinib = -0.152; Outcome = inactive
PAK1 #2: synergy score with BYL719 = -0.0634; synergy score with cetuximab = 0.0138; synergy score with trametinib = -0.0596; Outcome = inactive
PAK1 #3: synergy score with BYL719 = -0.0303; synergy score with cetuximab = 0; synergy score with trametinib = 0; Outcome = inactive
PAK1 #4: synergy score with BYL719 = -0.0708; synergy score with cetuximab = -0.0356; synergy score with trametinib = -0.0712; Outcome = inactive
MAPK4 #1: synergy score with BYL719 = -0.0357; synergy score with cetuximab = -0.014; synergy score with trametinib = -0.014; Outcome = inactive
MAPK4 #2: synergy score with BYL719 = 0.00136; synergy score with cetuximab = -0.124; synergy score with trametinib = -0.0825; Outcome = inactive
MAPK4 #3: synergy score with BYL719 = -0.0148; synergy score with cetuximab = 0.0589; synergy score with trametinib = 0; Outcome = inactive
MAPK4 #4: synergy score with BYL719 = -0.211; synergy score with cetuximab = -0.0955; synergy score with trametinib = -0.163; Outcome = inactive
GUCY2D #1: synergy score with BYL719 = -0.229; synergy score with cetuximab = -0.178; synergy score with trametinib = -0.217; Outcome = inactive
GUCY2D #2: synergy score with BYL719 = -0.0646; synergy score with cetuximab = -0.0829; synergy score with trametinib = -0.153; Outcome = inactive
GUCY2D #3: synergy score with BYL719 = -0.0859; synergy score with cetuximab = 0.0803; synergy score with trametinib = -0.102; Outcome = inactive
GUCY2D #4: synergy score with BYL719 = -0.236; synergy score with cetuximab = -0.198; synergy score with trametinib = -0.198; Outcome = inactive
CAMK2N1 #1: synergy score with BYL719 = 0.00509; synergy score with cetuximab = -0.0334; synergy score with trametinib = -0.115; Outcome = inactive
CAMK2N1 #2: synergy score with BYL719 = -0.0634; synergy score with cetuximab = -0.0582; synergy score with trametinib = -0.204; Outcome = inactive
CAMK2N1 #3: synergy score with BYL719 = 0.00714; synergy score with cetuximab = -0.0283; synergy score with trametinib = -0.113; Outcome = inactive
CAMK2N1 #4: synergy score with BYL719 = -0.0181; synergy score with cetuximab = -0.0792; synergy score with trametinib = -0.158; Outcome = inactive
PIM1 #1: synergy score with BYL719 = 0.0634; synergy score with cetuximab = -0.0603; synergy score with trametinib = -0.0812; Outcome = inactive
PIM1 #2: synergy score with BYL719 = 0.0335; synergy score with cetuximab = -0.0119; synergy score with trametinib = -0.0119; Outcome = inactive
PIM1 #3: synergy score with BYL719 = -0.0789; synergy score with cetuximab = -0.218; synergy score with trametinib = -0.314; Outcome = inactive
PIM1 #4: synergy score with BYL719 = 0.0172; synergy score with cetuximab = -0.013; synergy score with trametinib = -0.0994; Outcome = inactive
IRAK3 #1: synergy score with BYL719 = -0.201; synergy score with cetuximab = -0.0269; synergy score with trametinib = -0.201; Outcome = inactive
IRAK3 #2: synergy score with BYL719 = -0.102; synergy score with cetuximab = -0.0117; synergy score with trametinib = -0.0405; Outcome = inactive
IRAK3 #3: synergy score with BYL719 = -0.196; synergy score with cetuximab = -0.0256; synergy score with trametinib = -0.201; Outcome = inactive
IRAK3 #4: synergy score with BYL719 = -0.118; synergy score with cetuximab = -0.0492; synergy score with trametinib = -0.0214; Outcome = inactive

Just “synergy score with BYL719” (4 entries from above):
GUCY2D #4: -0.236
CAMK2N1 #1: 0.00509
CAMK2N1 #2: -0.0634
CAMK2N1 #3: 0.00714
